For 1 sequence, binding signal results are on record in article PMC5996148.

Some test systems named below: IFITM3 (human); IFNA2 (human); IFNA21 (human); IFNA5 (human); IFNA6 (human); IFNA8 (human); IFNAR2 (human); IFNGR2 (human); IFNK (human).
Common to all, as to experiment: protein microarray (ProtoArray v5.0), streptavidin-Alexa Fluor 647
Details in all cases: 3'-biotin; 20 mM Tris (pH 7.5), 5 mM MgCl2, 100 mM KCl, 0.1% Tween-20, A/T-rich and random oligonucleotide blockers; temperature not stated; high values mean tight binding

The target of another test is T1, IFNA1 (UniProt P0DY56).
T1 sequence: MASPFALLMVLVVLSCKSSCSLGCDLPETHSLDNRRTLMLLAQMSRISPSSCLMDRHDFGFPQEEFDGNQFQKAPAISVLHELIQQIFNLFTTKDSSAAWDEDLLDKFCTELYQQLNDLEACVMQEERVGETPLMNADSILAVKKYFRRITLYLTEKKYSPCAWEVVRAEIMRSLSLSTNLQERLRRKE

The other results are listed elsewhere or left out. For some of these results: The source does not settle which construct or isoform was used.

“GGGAGGCTGAGGCAGG [G4-1 biotinylated (PQS2)]”: the binding signal with IFITM3 (human) is -0.308 z-score; with IFNA1, -0.333 z-score; with IFNA2 (human) it was -0.33 z-score; with IFNA21 (human), -0.281 z-score; with IFNA5 (human), -0.35 z-score; with IFNA6 (human), -0.326 z-score. Further, the binding signal is -0.341 z-score in the test on IFNA8 (human), -0.303 z-score in the test on IFNAR2 (human), -0.309 z-score in the test with IFNGR2 (human) and -0.344 z-score with IFNK (human).
